Measurements from PubChem BioAssay AID2551 (National Center for Advancing Translational Sciences (NCATS), 2010).
“And” between values parts separate entries of the source, which are not always exact repeats. Equal entries are not always repeated. Out of some 310,000 compounds screened, about 17,000 (5.5%) were called active. This list was built around the results that the source calls inconclusive (neither active nor inactive); the mix of calls is not that of the screen. The call rests on the fitted dose curve; in most records, active means well fitted inhibition curve with a large enough effect; inconclusive means small, poorly fitted or top-dose-only effect, or effect the other way; inactive means no such curve, though single readings can be large or run the other way. Potencies beside an inconclusive call are fits to weak or partial responses and may not hold up.

Protein sequences, listed by entry. Tags and fused reporters are not part of them. Lines headed by an entry give the natural chain unless they say otherwise; changes in a name come on top.
UniProt P51450: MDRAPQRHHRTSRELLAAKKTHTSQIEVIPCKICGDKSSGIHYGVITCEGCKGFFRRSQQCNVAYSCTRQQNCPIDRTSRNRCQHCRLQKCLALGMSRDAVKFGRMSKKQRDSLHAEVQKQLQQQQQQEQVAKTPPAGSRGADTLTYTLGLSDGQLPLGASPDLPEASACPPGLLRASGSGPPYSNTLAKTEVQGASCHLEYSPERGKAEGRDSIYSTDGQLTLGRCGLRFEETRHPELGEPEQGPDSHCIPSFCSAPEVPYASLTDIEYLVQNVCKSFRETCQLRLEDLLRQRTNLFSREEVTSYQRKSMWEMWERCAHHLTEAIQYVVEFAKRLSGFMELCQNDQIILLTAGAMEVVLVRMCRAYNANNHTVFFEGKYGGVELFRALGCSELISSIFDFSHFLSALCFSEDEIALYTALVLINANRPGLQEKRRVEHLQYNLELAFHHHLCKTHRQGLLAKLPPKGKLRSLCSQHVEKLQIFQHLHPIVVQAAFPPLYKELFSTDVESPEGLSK

What follows are compounds tested against Nuclear receptor ROR-gamma (Mus musculus) (UniProt P51450) (assay: qHTS for inhibitors of ROR gamma transcriptional activity). Details: Drosophila S2 Gal4-RORgamma UAS-luciferase reporter, 20 h; activity change, negative = inhibition: at 53.6 µM (top of the series).
Procedure, shortened: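 Stably transfected Drosophila Schneider cells are the test system, with ROR gamma fused to Gal4 and luciferase under UAS control; luminescence is read after 20 hr of 700 uM copper sulfate induction at ambient temperature.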
Further: nearly all actives have a fitted effect of over 60% in size.
On the % scale 0 is the no-effect control and ±100 the full control effect; potency means the concentration at half of the fitted maximal effect.

Potency, active:
CCOc1ccccc1/C=N/Nc1nc2ccccc2o1 6.31 µM, CC(C)C[C@H](NC(=O)c1[nH]cnc1C(=O)N[C@H](C)c1ccccc1)C(=O)OCc1ccccc1 6.31 µM, S=c1[nH]cc(Cc2ccccc2)s1 12.6 µM, CC(C)c1nc2ccccn2c1NC1CCCCC1 5.01 µM, Cc1ccc(CNc2ccc3c(c2)ncn3C(C)C)cc1 5.01 µM, CCN(CC(=O)Nc1cc(C)nn1-c1nc(C)cc(C)n1)Cc1ccccc1 1.41 µM, COc1ccccc1C(=O)N1CCN(S(=O)(=O)c2ccccc2)CC1 11.2 µM, Cc1cnc(C(=O)Nc2nnc(C3CC3)s2)cn1 8.91 µM, Cc1ccc(C(=O)NC(=S)/C=C2\N(C)c3ccccc3C2(C)C)cc1 7.08 µM, O=C(NC1=C(NC2CCS(=O)(=O)C2)C(=O)c2ccccc2C1=O)c1ccccc1 (stereo not drawn) 12.6 µM, O=C(/C=C/c1ccc(Cl)cc1)NC(=S)Nc1ccc(CN2CCOCC2)cc1 3.98 µM, CCOc1ccccc1NC(=S)N1CCC(c2nc3ccccc3o2)CC1 11.2 µM, CC(C)C1NC(=S)N(C2CCCCC2)C1=O (stereo not drawn) 6.31 µM

Potency, inconclusive:
O=C(N/N=C/C1CCCCC1)c1ccccn1 35.5 µM [inhibitor, single point], FC(F)(F)c1ccccc1-c1nccc(-n2ccnc2)n1 35.5 µM [activator, single point], CCc1ccc(-c2csc3nc[nH]c(=O)c23)cc1 10 µM [activator, single point], O=C(CCl)Nc1cccc(Oc2cnccn2)c1 35.5 µM [inhibitor, single point], COc1ccc(-c2noc(CSc3nc(-c4ccccc4)cc(=O)[nH]3)n2)cc1 0.501 µM [inhibitor, full curve, poor fit], COc1ccc(C(=O)C2CCCN(Cc3ccc4nonc4c3)C2)cc1OC (stereo not drawn) 11.2 µM [activator, partial curve], COc1ccc(NC(=O)CN(C)C(=O)CNC(=O)C2CCCCC2)cc1 14.1 µM [activator, single point], CCCCCn1c(CCNC(=O)c2cccs2)nc2ccccc21 35.5 µM [inhibitor, single point], COc1ccc(OCc2nc(C#N)c(N3CCN(c4ccc(OC)cc4)CC3)o2)cc1 12.6 µM [activator, single point], O=c1c2ccsc2ncn1Cc1cccc(C(F)(F)F)c1 35.5 µM [activator, partial curve], CCOC(=O)C1CCCN(CC(=O)Nc2c(C(=O)OC)[nH]c3ccc(Cl)cc23)C1 (stereo not drawn) 35.5 µM [activator, single point], CN1C(=O)C(Cc2c[nH]c3ccccc23)NC1=S (stereo not drawn) 15.8 µM [inhibitor, single point] and 11.2 µM [inhibitor, partial curve, poor fit], O=C(C[n+]1cc(-c2ccccc2)n2c1CCC2)Nc1nc(-c2ccccc2)cs1 0.0056 µM [activator, full curve, poor fit], CCOc1cc(/C=C2\CCC/C(=C\c3cc(Cl)c(O)c(OCC)c3)C2=O)cc(Cl)c1O 35.5 µM [inhibitor, single point], Cc1cccc(-n2c(SCN3C(=O)c4ccccc4C3=O)nc3ccccc3c2=O)c1 12.6 µM [inhibitor, partial curve, poor fit], Cc1cccc(NC(=O)CN2C(=O)NC(C)(c3ccc4c(c3)OCO4)C2=O)c1 (stereo not drawn) 6.31 µM [inhibitor, single point], COc1ccc(C(=O)C2CCCN(S(=O)(=O)c3ccc(C(C)=O)cc3)C2)c(C)c1 (stereo not drawn) 12.6 µM [activator, single point], O=C(CCc1ccccc1)Nc1ncc([N+](=O)[O-])s1 35.5 µM [inhibitor, single point], CCc1c(O)cc2n(c1=O)-c1ccc(Cl)cc1C2(C)C 31.6 µM [inhibitor, single point], NC(=S)Nc1ccccc1Br 8.91 µM [inhibitor, full curve, poor fit], CCC(=O)N1CCc2cc(S(=O)(=O)NCCC(=O)N3CC=C(c4ccccc4)CC3)ccc21 14.1 µM [activator, single point], O=C1C=CC(=O)c2c(O)c(Cl)c(Cl)c(O)c21 22.4 µM [inhibitor, single point], Oc1cccc(O)c1 35.5 µM [inhibitor, single point], Cc1cc(C)c(C)c(S(=O)(=O)NCc2ccncc2)c1C 7.94 µM [activator, partial curve]

Activity change, negative = inhibition, inactive:
N#C/C(=C(/O)CCl)c1nc(-c2ccccc2)cs1 -22.5%, COc1cccc(N2CCN(C(=O)CCC(=O)N3CCOc4ccc(C)cc43)CC2)c1 1.18%, C[n+]1c2n(c3ccccc31)N=C(c1ccc(Cl)cc1)CS2 6.6%, O=C(Nc1ccc(N2CCN(c3ccccc3)CC2)c(F)c1)C1CC1 23.7%, O=C(Nc1cccc(S(=O)(=O)N2CCCCC2)c1)c1ccc2c(=O)n3c(nc2c1)CCCCC3 -38.2%, CC(=O)Oc1ccc(C23CC4CC(CC(C4)C2)C3)cc1C(=O)O 18.3%, COc1ccc(OC)c(C2C(C#N)=C(N)N(N(C)C)C3=C2C(=O)CCC3)c1 (stereo not drawn) -1.1%, CCOC(=O)c1ccc(CC(=O)c2oc3cc(O)ccc3c2C)o1 6.72%, CCCS(=O)(=O)c1c(S(=O)(=O)CCC)c2c(C)cccn2c1C(=O)OC 13.2%, Cc1nn(C)c(C)c1S(=O)(=O)N(CC(=O)NCCCOC(C)C)c1ccc(C(C)C)cc1 -1.69%, O=C(O)Cn1cc(/C=N/NC(=O)c2cc3cc(Br)ccc3o2)c2ccccc21 -3.55%
